{
  "source": "patent US20100190711A1",
  "about": "“BIG GASTRIN I AS A THERAPEUTIC AGENT” (priority 2007, published 2010)",
  "key": {"HCMV strain AD169": {"tested_on": "HCMV strain AD169", "assay": "HCMV plaque reduction assay in MRC-5 cells", "format": "cell-based", "settings": "HCMV in MRC-5 cells; peptide 10 micrograms per ml; 7-10 days"}, "[1]": {"tested_on": "hepatitis B virus (HBV) ayw strain", "assay": "HBV replication assay in HepG2-2.2.15 cells (secreted HBV DNA, TaqMan PCR)", "settings": "peptide 10 micrograms per ml; six days"}},
  "note": "Part of at least one peptide drawing is inferred or uncertain, most often the ends. Where a SMILES comes first, the peptide text is derived from it. [ ]: non-standard residue; d: D form. pGlu = O=C1CC[C@@H](C(=O)O)N1",
  "data": [
    {"compound": "CSCC[C@H](NC(=O)[C@H](Cc1c[nH]c2ccccc12)NC(=O)CNC(=O)[C@H](Cc1ccc(O)cc1)NC(=O)[C@H](C)NC(=O)[C@H](CCC(=O)O)NC(=O)[C@H](CCC(=O)O)NC(=O)[C@H](CCC(=O)O)NC(=O)[C@H](CCC(=O)O)NC(=O)[C@H](CCC(=O)O)NC(=O)[C@H](CC(C)C)NC(=O)[C@H](Cc1c[nH]c2ccccc12)NC(=O)[C@@H]1CCCN1C(=O)CNC(=O)[C@H](CCC(N)=O)NC(=O)[C@H](CCCCN)NC(=O)[C@H](CCCCN)NC(=O)[C@H](CO)NC(=O)[C@@H]1CCCN1C(=O)[C@H](CC(=O)O)NC(=O)[C@H](C)NC(=O)[C@@H](NC(=O)[C@H](CC(C)C)NC(=O)[C@H](Cc1c[nH]cn1)NC(=O)[C@@H]1CCCN1C(=O)[C@@H]1CCCN1C(=O)CNC(=O)[C@H](CCC(N)=O)NC(=O)[C@@H]1CCCN1C(=O)CNC(=O)[C@H](CC(C)C)NC(=O)[C@@H]1CCC(=O)N1)C(C)C)C(=O)N[C@@H](CC(=O)O)C(=O)N[C@@H](Cc1ccccc1)C(N)=O", "note": "[Big Gastrin I] ([pGlu]LGPQGPPHLVADPSKKQGPWLEEEEEAYGWMDF-NH2)", "values": [
      {"measurement": "% plaque reduction", "setting": "HCMV strain AD169", "value": 2.1, "unit": "%"},
      {"measurement": "% inhibition of HBV replication in HEP G2 cells", "setting": "[1]", "value": 11.3, "unit": "%"}
    ]}
  ]
}
